# Laboratory results published in PubChem BioAssay AID504467 (National Center for Advancing Translational Sciences (NCATS), 2011).
# Hit rate of the full screen: of about 330,000 compounds, about 7,700 (2.3%) were called active. This list was built around the results that the source calls inconclusive (neither active nor inactive); the mix of calls is not that of the screen. Calls come from the whole dose curve; as a rule, active = well fitted inhibition curve with a large enough effect; inconclusive = small, poorly fitted or top-dose-only effect, or effect the other way; inactive = flat fitted curve, though single readings scatter. Where the call is inconclusive, the potency comes from a doubtful curve fit.
# Test: qHTS screen for small molecules that inhibit ELG1-dependent DNA repair in human embryonic kidney (HEK293T) cells expressing luciferase-tagged ELG1; note: nearly all actives have a fitted effect of over 55% in size
# Details: HEK293T ELG1-luciferase reporter, luminescence, 16 h, DNA damage induced by 5-fluorouridine; activity change, negative = inhibition: at 46.1 µM (top of the series)
# Outline: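 Quantitative HTS, concentration-response format. 2,000 cells/well co-treated with 5-fluorouridine and compound, 16 hr in 5% CO2 at 37 °C; ONE-Glo luminescence read after 30 min.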
# % is set by controls: 0 for no effect and ±100 for the full control effect; potency is the fitted concentration of half-maximal effect.
SMILES,Potency,"activity change, negative = inhibition"
COc1ccc(NC(=O)c2c(N)no[n+]2[O-])cc1,active: 4.61 µM,
O=C(Nc1ccc2c(c1)OCO2)Nc1ccc2c(c1)OCO2,"inconclusive: 4.11 µM [activator, full curve]",
Cc1cc(C)nc(N/N=C/C2=C(N3CCOCC3)C(=C\c3ccc(Cl)cc3)/CC2)n1,"inconclusive: 25.9 µM [inhibitor, partial curve]",
c1c2c(cc3sc(N4CCCCC4)nc13)OCCO2,"inconclusive: 0.291 µM [activator, partial curve, poor fit]",
O=C(NCC1CCN(Cc2cccc(Cl)c2)CC1)Nc1ccc(Cl)cc1,,inactive: -3.65%
COc1cccc(CNC(=O)Nc2cccs2)c1,"inconclusive: 11.2 µM [activator, single point]",
CCCn1c(CCC(=O)Nc2ccccc2Cc2ccccc2)nc2cc(S(=O)(=O)N3CCOCC3)ccc21,active: 11.6 µM,
O=[N+]([O-])c1ccc(NC(=S)N2CCN(c3ccc(F)cc3)CC2)cc1,,inactive: -3.95%
C[C@H](NC(=O)N1CCn2c1nc1ccccc12)C(=O)NCc1ccc2c(c1)OCO2,,inactive: 0%
Cn1ccsc1=NC(=O)c1ccc(Cl)c([N+](=O)[O-])c1,"inconclusive: 29.1 µM [activator, single point]",
O=C(/C=C/c1ccccc1)NCCC1=CCCCC1,"inconclusive: 16.4 µM [activator, partial curve]",
O=[N+]([O-])c1ccccc1/C=N\Nc1nccs1,,inactive: 16.3%
CCOc1ccc(NC(=O)CN(C)CC(=O)Nc2ccccc2SC)cc1OCC,"inconclusive: 32.6 µM [inhibitor, single point]",
CCOc1ccc2c(c1)C(C)=CC(C)(C)N2C(=O)Nc1ccccc1F,"inconclusive: 16.4 µM [activator, partial curve, poor fit]",
CCCCN1CCc2c([nH]c3c(C)cccc23)C1=O,"inconclusive: 4.61 µM [activator, full curve]",
COc1cccc(N2CC(=O)Nc3c(oc4nc(-c5ccccc5)cc(C)c34)C2=O)c1,"inconclusive: 29.1 µM [inhibitor, single point]",
Cc1nccc(-c2cc(-c3ccc(Cl)cc3Cl)no2)n1,"inconclusive: 14.6 µM [activator, partial curve]",
Cc1nc(C(=O)NCc2ccccc2)sc1C1(C)CC(c2ccccc2)=NO1 (stereo not given),"inconclusive: 29.1 µM [inhibitor, single point]",
COc1ccc(NC(=O)CSc2ccccc2)cn1,"inconclusive: 20.6 µM [activator, single point]",
COc1ccc(F)cc1Cn1nc(C(=O)O)c2ccccc2c1=O,"inconclusive: 4.11 µM [inhibitor, partial curve, poor fit]",
O=C(Nc1ccc(F)cc1)C(=O)C1C(=O)Nc2ccccc21 (stereo not given),,inconclusive: 23.3% [activator]
C(=N\Nc1ncnc2nc[nH]c12)/c1cccs1,"inconclusive: 16.4 µM [activator, partial curve]",
CCN(CC)S(=O)(=O)c1ccc(S(=O)(=O)Nc2cc3c(cc2C(C)=O)OCO3)cc1,"inconclusive: 1.16 µM [activator, single point]",

# Sorted by molecular weight (largest number first): eight of the compounds above.
SMILES,Potency,"activity change, negative = inhibition"
C[C@H](NC(=O)N1CCn2c1nc1ccccc12)C(=O)NCc1ccc2c(c1)OCO2,,inactive: 0%
O=C(NCC1CCN(Cc2cccc(Cl)c2)CC1)Nc1ccc(Cl)cc1,,inactive: -3.65%
Cc1nc(C(=O)NCc2ccccc2)sc1C1(C)CC(c2ccccc2)=NO1 (stereo not given),"inconclusive: 29.1 µM [inhibitor, single point]",
CCOc1ccc2c(c1)C(C)=CC(C)(C)N2C(=O)Nc1ccccc1F,"inconclusive: 16.4 µM [activator, partial curve, poor fit]",
COc1ccc(F)cc1Cn1nc(C(=O)O)c2ccccc2c1=O,"inconclusive: 4.11 µM [inhibitor, partial curve, poor fit]",
Cc1nccc(-c2cc(-c3ccc(Cl)cc3Cl)no2)n1,"inconclusive: 14.6 µM [activator, partial curve]",
COc1cccc(CNC(=O)Nc2cccs2)c1,"inconclusive: 11.2 µM [activator, single point]",
COc1ccc(NC(=O)c2c(N)no[n+]2[O-])cc1,active: 4.61 µM,

# Next part.

SMILES,Potency,"activity change, negative = inhibition"
COc1ccccc1N1CCN(C(=O)C2c3ccccc3Oc3ccccc32)CC1,"inconclusive: 6.51 µM [inhibitor, partial curve, poor fit]",
Cc1cc(-c2nc3ccccc3c(=O)o2)ccc1[N+](=O)[O-],"inconclusive: 29.1 µM [inhibitor, single point]",
Cc1ccc(CC(=O)N(Cc2ccccc2)c2ccccn2)cc1,,inactive: -14.2%
CCNC(=O)c1ccc(NC(=O)CC2SC(N3CCCCC3)=NC2=O)cc1 (stereo not given),"inconclusive: 20.6 µM [activator, single point]",
NS(=O)(=O)c1ccc(N=Nc2ccc(O)c3ncccc23)cc1,"inconclusive: 6.51 µM [inhibitor, single point]",
CCCOC(=O)c1ccc(Cl)c(NC(=O)c2ccc(-c3ccccc3)cc2)c1,"inconclusive: 16.4 µM [activator, partial curve]",
O=C(CCc1ccccc1)Nc1nc2n(n1)C(c1ccccc1)CC(=O)N2 (stereo not given),,inactive: -16.1%
O=C(CCCC(=O)OCC(=O)c1ccc(Cl)cc1)NC1CCCCC1,,inactive: 7.57%
CCN(Cc1cc(=O)[nH]c2ccccc12)C(=O)c1ccc(C)cc1,,inactive: 6.5%
CCn1nc(C)c(CN2CCN(Cc3ccsc3)C(CCO)C2)c1C (stereo not given),,inactive: -6.54%
O=C(c1c(Cl)nc2sccn12)N1CCN(c2cccc(Cl)c2)CC1,"inconclusive: 6.31 µM [inhibitor, full curve]",
CCn1c(SCc2ccccc2Cl)nc2nc3c(cc2c1=O)CCCC3,"inconclusive: 29.1 µM [inhibitor, single point]",
O=C(c1ccco1)N1CCN(c2cccc(Cl)c2)CC1,"inconclusive: 25.9 µM [activator, single point]",
CCN(CC(=O)Nc1ccc(Cl)c(S(=O)(=O)N(C)C)c1)Cc1nc2ccccc2c(=O)[nH]1,"inconclusive: 9.2 µM [inhibitor, partial curve]",
Cc1ccc(C(=O)c2cc([N+](=O)[O-])ccc2N2CCOCC2)cc1,"inconclusive: 2.31 µM [inhibitor, partial curve, poor fit]",
COc1ccc(-c2cnc(N)n2C)cc1,,inactive: 6.19%
COc1ccc(C(=O)NC(=O)COC(=O)c2ccc3ncsc3c2)cc1,"inconclusive: 16.4 µM [activator, partial curve]",
COc1ccc(CC2(CO)CCN(S(=O)(=O)c3cccc4cccnc34)CC2)cc1,,inactive: -2.25%
O=C(Nc1ccn(Cc2c(F)c(F)cc(F)c2F)n1)c1cccc(Cn2cc([N+](=O)[O-])cn2)c1,"inconclusive: 16.4 µM [inhibitor, partial curve]",
CCC1C(=O)N=C(SCC(=O)Nc2ccccc2)NC1=O (stereo not given),"inconclusive: 3.26 µM [activator, partial curve, poor fit]",
Cc1cc(C)nc(-n2nc(C)cc2NC(=O)CNC(C)c2ccccc2)n1 (stereo not given),,inactive: 2.17%
CC1Cc2ccccc2N1C(=O)CN1CCC(n2nnc3cc(C(F)(F)F)ccc32)CC1 (stereo not given),active: 20.6 µM,
